According to patent publication US20200247886A1:
Results are given in words; binding and its absence hold for the method and conditions named. Some entries that bind do so weakly or less than the wild type. For some assays here: Where a sequence is shown, tags or fusion partners need not be part of it.

Experiments:
[1] = molecular target: CD47 on monkey RBC (Macaca fascicularis); assay: flow cytometry on cynomolgus monkey red blood cells, MFI
CHO/mCD47-GFP (mouse) = molecular target: T1, CHO/mCD47-GFP (mouse) (UniProt Q61735); assay: flow cytometry on CHO cells expressing mouse CD47-GFP, binding percentage
T1 sequence (receptor, looked up): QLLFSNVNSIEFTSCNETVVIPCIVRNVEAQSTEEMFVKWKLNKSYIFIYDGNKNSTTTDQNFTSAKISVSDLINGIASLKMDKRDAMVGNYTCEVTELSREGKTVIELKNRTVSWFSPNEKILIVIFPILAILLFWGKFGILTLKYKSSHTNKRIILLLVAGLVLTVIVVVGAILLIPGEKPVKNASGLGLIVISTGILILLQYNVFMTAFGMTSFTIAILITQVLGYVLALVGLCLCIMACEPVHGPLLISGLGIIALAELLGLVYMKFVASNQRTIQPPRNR

binding [1]: binds
binding (CHO/mCD47-GFP (mouse)): binds
B1: mSIRPa (receptor, UniProt P97797 32-373, looked up)
ligand protein: KELKVTQPEKSVSVAAGDSTVLNCTLTSLLPVGPIRWYRGVGPSRLLIYSFAGEYVPRIRNVSDTTKRNNMDFSIRISNVTPADAGIYYCVKFQKGSSEPDTEIQSGGGTEVYVLAKPSPPEVSGPADRGIPDQKVNFTCKSHGFSPRNITLKWFKDGQELHPLETTVNPSGKNVSYNISSTVRVVLNSMDVNSKVICEVAHITLDRSPLRGIANLSNFIRVSPTVKVTQQSPTSMNQVNLTCRAERFYPEDLQLIWLENGNVSRNDTPKNLTKNTDGTYNYTSLFLVNSSAHREDVVFTCQVKHDQQPAITRNHTVLGFAHSSDQGSMQTFPDNNATHNWN
